Experimental data published in paper doi:10.1101/720508.

Protein sequences, listed by entry. Tags and fused reporters are not part of them. Lines headed by an entry give the natural chain unless they say otherwise; changes in a name come on top. Chains listed by the source or under a name are the forms on record and can include a tag or linker. Residues count along the entry.
UniProt Q9JIS5: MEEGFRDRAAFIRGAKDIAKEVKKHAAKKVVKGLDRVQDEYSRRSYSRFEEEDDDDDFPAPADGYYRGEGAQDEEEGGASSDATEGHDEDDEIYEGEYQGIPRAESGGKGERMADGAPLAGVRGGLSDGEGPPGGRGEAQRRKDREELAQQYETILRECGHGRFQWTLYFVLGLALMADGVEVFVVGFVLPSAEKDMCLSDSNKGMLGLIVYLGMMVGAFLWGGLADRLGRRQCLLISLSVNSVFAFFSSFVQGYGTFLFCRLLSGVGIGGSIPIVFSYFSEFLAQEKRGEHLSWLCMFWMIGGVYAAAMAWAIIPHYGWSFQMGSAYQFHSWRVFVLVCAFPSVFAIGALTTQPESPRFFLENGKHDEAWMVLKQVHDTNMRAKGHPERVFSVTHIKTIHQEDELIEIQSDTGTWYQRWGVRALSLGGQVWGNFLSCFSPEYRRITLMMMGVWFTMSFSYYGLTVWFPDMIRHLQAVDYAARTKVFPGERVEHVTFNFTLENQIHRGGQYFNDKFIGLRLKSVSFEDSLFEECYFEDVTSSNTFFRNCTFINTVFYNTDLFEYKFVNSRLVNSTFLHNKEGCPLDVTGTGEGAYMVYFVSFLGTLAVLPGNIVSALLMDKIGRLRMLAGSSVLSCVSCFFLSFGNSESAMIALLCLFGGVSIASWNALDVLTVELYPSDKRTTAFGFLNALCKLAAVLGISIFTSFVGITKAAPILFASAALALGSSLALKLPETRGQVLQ
UniProt O55143: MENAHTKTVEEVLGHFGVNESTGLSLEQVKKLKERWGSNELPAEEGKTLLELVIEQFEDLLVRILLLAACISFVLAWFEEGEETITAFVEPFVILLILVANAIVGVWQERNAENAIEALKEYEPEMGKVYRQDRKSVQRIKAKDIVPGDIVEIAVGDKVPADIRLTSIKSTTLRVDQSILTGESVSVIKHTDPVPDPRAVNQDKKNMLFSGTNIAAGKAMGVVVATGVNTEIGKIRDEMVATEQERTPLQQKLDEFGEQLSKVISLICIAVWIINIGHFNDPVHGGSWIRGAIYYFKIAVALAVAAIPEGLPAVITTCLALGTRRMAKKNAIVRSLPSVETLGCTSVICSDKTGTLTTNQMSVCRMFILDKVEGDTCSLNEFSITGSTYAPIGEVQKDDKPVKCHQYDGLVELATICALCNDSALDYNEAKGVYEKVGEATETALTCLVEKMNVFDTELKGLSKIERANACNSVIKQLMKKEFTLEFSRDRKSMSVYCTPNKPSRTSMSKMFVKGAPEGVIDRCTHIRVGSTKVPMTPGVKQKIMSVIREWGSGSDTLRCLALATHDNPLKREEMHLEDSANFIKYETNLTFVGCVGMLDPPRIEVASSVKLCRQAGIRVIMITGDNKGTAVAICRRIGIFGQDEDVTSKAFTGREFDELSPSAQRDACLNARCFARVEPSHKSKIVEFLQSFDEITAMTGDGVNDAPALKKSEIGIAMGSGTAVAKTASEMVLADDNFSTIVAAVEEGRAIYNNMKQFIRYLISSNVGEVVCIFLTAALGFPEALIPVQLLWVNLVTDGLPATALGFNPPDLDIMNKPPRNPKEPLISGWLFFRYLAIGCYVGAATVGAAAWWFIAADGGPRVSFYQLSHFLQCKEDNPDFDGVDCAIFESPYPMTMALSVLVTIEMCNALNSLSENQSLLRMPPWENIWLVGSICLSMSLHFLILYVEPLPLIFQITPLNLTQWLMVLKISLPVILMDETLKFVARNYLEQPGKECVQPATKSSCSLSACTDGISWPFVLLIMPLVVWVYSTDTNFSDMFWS
UniProt P14231: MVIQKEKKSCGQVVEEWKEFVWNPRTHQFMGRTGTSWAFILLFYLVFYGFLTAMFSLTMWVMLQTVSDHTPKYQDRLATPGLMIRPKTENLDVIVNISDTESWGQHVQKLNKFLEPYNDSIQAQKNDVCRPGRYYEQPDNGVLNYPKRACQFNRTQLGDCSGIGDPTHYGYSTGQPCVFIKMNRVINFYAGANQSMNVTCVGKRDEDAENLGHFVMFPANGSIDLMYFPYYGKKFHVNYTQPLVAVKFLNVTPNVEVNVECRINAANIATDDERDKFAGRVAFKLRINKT
UniProt P56480, residues 47-529: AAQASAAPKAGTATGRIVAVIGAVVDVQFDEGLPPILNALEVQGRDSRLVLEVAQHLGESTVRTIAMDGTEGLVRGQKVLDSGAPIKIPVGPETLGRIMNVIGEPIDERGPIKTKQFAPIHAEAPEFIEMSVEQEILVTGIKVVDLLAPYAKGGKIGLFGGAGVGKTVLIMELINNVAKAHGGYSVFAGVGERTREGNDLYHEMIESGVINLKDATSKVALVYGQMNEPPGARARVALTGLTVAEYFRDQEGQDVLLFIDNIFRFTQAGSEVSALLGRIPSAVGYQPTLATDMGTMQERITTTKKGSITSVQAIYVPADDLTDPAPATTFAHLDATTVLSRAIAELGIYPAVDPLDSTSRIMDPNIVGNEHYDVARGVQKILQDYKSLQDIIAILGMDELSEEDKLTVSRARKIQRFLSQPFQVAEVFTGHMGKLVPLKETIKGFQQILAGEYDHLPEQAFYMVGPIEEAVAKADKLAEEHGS
AT2B3 (calcium ATPase) (Q8C048, form named): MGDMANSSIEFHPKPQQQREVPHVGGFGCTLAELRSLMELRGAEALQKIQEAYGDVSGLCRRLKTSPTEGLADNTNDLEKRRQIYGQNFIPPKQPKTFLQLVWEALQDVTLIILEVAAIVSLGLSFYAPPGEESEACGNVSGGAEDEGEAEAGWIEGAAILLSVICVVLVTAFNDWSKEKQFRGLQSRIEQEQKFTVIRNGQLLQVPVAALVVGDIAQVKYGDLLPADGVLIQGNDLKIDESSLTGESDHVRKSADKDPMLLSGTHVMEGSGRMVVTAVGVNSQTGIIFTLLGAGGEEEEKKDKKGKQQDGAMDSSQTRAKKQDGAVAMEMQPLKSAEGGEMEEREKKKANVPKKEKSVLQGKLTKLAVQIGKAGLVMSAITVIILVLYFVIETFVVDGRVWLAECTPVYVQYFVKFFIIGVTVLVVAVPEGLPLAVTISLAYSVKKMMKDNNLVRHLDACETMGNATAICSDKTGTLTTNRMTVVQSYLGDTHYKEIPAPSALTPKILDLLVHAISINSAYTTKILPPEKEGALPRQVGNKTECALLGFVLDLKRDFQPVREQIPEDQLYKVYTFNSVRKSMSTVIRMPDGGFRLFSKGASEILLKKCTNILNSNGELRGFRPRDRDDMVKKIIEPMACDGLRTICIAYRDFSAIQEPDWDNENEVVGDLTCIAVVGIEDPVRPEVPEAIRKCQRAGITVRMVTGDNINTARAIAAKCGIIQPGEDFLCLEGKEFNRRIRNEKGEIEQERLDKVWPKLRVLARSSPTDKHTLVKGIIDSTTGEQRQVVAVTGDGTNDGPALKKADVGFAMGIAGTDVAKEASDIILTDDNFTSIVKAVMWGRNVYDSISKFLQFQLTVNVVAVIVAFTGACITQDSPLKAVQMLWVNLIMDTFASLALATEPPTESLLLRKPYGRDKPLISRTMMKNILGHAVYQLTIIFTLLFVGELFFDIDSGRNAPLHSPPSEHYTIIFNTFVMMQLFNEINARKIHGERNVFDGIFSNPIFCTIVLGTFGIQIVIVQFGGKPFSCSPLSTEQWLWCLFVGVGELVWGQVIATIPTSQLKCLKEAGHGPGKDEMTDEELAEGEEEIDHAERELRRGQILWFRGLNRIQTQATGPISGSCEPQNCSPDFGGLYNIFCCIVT

Each substance was assayed against T1, GPR151 (mouse (endogenous in IPN)) (UniProt Q7TSN6) (assay: affinity purification with mass spectrometry).
T1 sequence: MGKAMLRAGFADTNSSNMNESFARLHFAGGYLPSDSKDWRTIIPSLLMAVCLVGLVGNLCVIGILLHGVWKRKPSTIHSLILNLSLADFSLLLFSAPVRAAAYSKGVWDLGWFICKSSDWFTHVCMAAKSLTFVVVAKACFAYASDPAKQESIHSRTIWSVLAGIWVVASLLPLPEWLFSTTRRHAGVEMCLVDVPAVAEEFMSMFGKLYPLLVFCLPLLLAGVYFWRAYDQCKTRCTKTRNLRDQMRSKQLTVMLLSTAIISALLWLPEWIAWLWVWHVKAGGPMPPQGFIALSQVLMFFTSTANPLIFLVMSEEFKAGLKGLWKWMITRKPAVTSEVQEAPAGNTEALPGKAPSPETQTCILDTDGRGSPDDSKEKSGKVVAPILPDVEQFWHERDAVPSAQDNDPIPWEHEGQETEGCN

binding, binds:
Synaptic vesicle glycoprotein 2A (SV2A) (from UniProt Q9JIS5 1-742)
AT2A2 (calcium ATPase) (from UniProt O55143 1-1044)
AT1B2 (sodium/potassium ATPase structural β-subunit) (from UniProt P14231 1-290)
AT5B (H+ transporting ATPase) (from UniProt P56480 47-529)
AT2B3 (calcium ATPase) (from UniProt Q8C048 1-1144)

No constants are given. Whether binding was seen depends on the method and setting. Binding seen in cells or lysates may run through a third protein. These calls come from enrichment with a bait or labelling near it, and not all partners need be listed.
